# Source: PubChem BioAssay AID602346 (Broad Institute, 2012)
# Out of some 340,000 compounds screened, about 1,200 (0.35%) were called active. The shares of active, inactive and inconclusive entries below differ from those in the screen. No stated cut-off is given here; in the data, active means inhibition above about 50% (passing the limit was not always enough); inconclusive means no clear call, values can overlap the other calls; inactive means below about 31%.
# Test: blockers of Vif multimerization in cells – imaging, HEK293T, single point, primary screen (AID 602346)
# Details: Vif self-association by quenched fluorescence, 24 h, at 7.49 µM, active compounds read high
row,SMILES,inhibition
1,CC(=O)[C@@]1(O)Cc2c(O)c3c(c(O)c2[C@H](O[C@H]2C[C@H](N)[C@H](O)[C@H](C)O2)C1)C(=O)c1ccccc1C3=O,active: 66.5%
2,Cc1nc(S/C(=C/c2ccc(-c3cc(Cl)ccc3C)o2)C(=O)O)n[nH]1,active: 51.9%
3,CC(=O)Nc1cc(S(=O)(=O)Nc2ccc(C)cc2)c(C)cc1C,inactive: 3.65%
4,CSc1cccc(NC(=O)CN(C)S(=O)(=O)c2ccc(C)cc2)c1,inconclusive: 32.1%
5,CCOc1cc(/C=C2/NC(=O)N(Cc3ccccc3F)C2=O)ccc1O,inactive: -5.39%
6,CCc1ccc(NC(=O)c2n[nH]c(=O)c3ccccc23)cc1,inactive: -4.65%
7,COc1cccc(C(=O)CN2C3=NCCCN3c3ccccc32)c1,inconclusive: 49%
8,O=C(NC1CCCC1)c1ccc(COCC(F)(F)F)o1,inconclusive: 43.9%
9,Cn1c(CNc2nc3ccccc3n2CCN2CCCCC2)nc2ccccc21,inconclusive: 28.7%
10,CC1CCCN(C(=O)CCCn2c(=S)[nH]c3ccccc3c2=O)C1 (stereo not given),inconclusive: 39.3%
11,O=C(COc1ncnc2c(Cl)cc(Cl)cc12)N1CCN(S(=O)(=O)c2ccccc2)CC1,inconclusive: 24.8%
12,Cc1cc(-n2c(C)cc(C(=O)CSc3[nH]c(=O)cc(C(F)(F)F)c3C#N)c2C)no1,inconclusive: 33.5%
13,CC(=O)c1cc(CC=C(C)C)c(O)c(CC=C(C)C)c1O,active: 63.6%
14,Nc1nc2cc(Cl)c(Br)cc2o1,inactive: 12.6%
15,O=C(Nc1cccc(-c2cn3cccnc3n2)c1)c1ccc(Br)o1,active: 81.1%
16,NC(=O)C1=C(N=C2CCCCC2)CCCC1,active: 65.3%
17,Cc1cc(N2CCCC2)nc(-c2ccccc2O)n1,inactive: -24%
18,CN(C)S(=O)(=O)c1ccc(C(=O)OCc2ccc([N+](=O)[O-])cc2)cc1,inactive: -7.8%
19,CC(C)CCNC(=O)NC(=O)CN1C(=O)NC2(CCCCC2)C1=O,inconclusive: 30.1%
20,C=CCSc1nc2c(sc3nc(C)cc(C)c32)c(=O)[nH]1,inconclusive: 19.3%
21,C/C(O)=C(\C#N)c1nc2ccccc2[nH]1,active: 51.1%
22,N#CC1=C(N)Nc2nc3ccccc3n2C1c1ccc(Cl)cc1 (stereo not given),inactive: -0.558%
23,CC(=O)c1cccc(NC(=O)c2cnn3ccccc23)c1,inconclusive: 37.9%
24,Cc1cc(NC(=O)CCC(=O)N(Cc2ccco2)C(C(=O)NC2CCCCC2)c2ccccc2)no1 (stereo not given),inconclusive: 45%
25,O=C(O)C1CCCN1S(=O)(=O)c1ccc2c(c1)CCC2 (stereo not given),inconclusive: 35.4%

# Shown tab-delimited: part of the list above
row	SMILES	inhibition
23	CC(=O)c1cccc(NC(=O)c2cnn3ccccc23)c1	inconclusive: 37.9%
24	Cc1cc(NC(=O)CCC(=O)N(Cc2ccco2)C(C(=O)NC2CCCCC2)c2ccccc2)no1 (stereo not given)	inconclusive: 45%
